Results on two molecules are retold here after PMC5053603.

The chains behind the UniProt entries cited, without tags or fusion partners.
UniProt P11413: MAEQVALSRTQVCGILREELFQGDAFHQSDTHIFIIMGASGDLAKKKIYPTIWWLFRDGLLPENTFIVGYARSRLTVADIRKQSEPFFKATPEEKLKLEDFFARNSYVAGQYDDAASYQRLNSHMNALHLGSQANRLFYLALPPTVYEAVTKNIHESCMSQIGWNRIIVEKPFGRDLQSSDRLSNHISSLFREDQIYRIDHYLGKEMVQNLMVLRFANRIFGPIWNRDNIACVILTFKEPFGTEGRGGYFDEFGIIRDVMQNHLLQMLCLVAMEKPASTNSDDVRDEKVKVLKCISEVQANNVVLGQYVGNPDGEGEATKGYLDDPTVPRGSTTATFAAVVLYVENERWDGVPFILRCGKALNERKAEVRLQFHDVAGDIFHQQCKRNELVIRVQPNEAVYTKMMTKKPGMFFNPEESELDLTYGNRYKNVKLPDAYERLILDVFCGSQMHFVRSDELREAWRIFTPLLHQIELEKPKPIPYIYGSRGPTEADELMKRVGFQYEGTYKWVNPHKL

These are yes or no findings as the source states them, for the method shown. Binding seen in cells or lysates may run through a third protein. Some binding calls cover weakened binding; strength is not graded here.

For test [1], the target named is T1, SIRT2 (human (endogenous in U87-MG)) (UniProt Q8IXJ6).
T1 sequence: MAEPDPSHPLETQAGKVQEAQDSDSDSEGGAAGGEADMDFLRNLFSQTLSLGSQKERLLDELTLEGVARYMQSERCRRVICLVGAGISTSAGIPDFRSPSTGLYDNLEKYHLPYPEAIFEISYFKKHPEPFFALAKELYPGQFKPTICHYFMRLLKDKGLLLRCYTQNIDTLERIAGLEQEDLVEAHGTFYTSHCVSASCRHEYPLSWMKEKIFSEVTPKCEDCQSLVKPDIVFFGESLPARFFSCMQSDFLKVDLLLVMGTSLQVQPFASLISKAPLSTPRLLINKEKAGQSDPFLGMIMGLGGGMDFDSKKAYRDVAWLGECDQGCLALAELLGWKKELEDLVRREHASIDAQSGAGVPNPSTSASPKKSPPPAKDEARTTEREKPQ
Kind of test: co-IP; inverse co-immunoprecipitation of the endogenous proteins in U87 cell lysate (NP-40 buffer), antibody then Protein-A beads at 4°C, western blot; control and HSPB1-knockdown cells (Fig 4F).

In test [2] the target is glucose 6-phosphate dehydrogenase (human (endogenous in U87-MG)) (UniProt P11413). Kind of test: co-IP; endogenous proteins in U87 cell lysate (NP-40 buffer: 50 mM Tris-HCl pH 7.6, 150 mM NaCl, 0.5% NP-40), antibody then Protein-A beads at 4°C, western blot; control and HSPB1-knockdown cells (Fig 4E). In general terms: A western blot detects proteins with antibodies after separation by electrophoresis.

Take “glucose 6-phosphate dehydrogenase (from UniProt P11413 1-515) (enzyme)”: in test [1], the binding entry is listed as “binds”.

B1: SIRT2 (enzyme, UniProt Q8IXJ6 1-389)
chain: MAEPDPSHPLETQAGKVQEAQDSDSDSEGGAAGGEADMDFLRNLFSQTLSLGSQKERLLDELTLEGVARYMQSERCRRVICLVGAGISTSAGIPDFRSPSTGLYDNLEKYHLPYPEAIFEISYFKKHPEPFFALAKELYPGQFKPTICHYFMRLLKDKGLLLRCYTQNIDTLERIAGLEQEDLVEAHGTFYTSHCVSASCRHEYPLSWMKEKIFSEVTPKCEDCQSLVKPDIVFFGESLPARFFSCMQSDFLKVDLLLVMGTSLQVQPFASLISKAPLSTPRLLINKEKAGQSDPFLGMIMGLGGGMDFDSKKAYRDVAWLGECDQGCLALAELLGWKKELEDLVRREHASIDAQSGAGVPNPSTSASPKKSPPPAKDEARTTEREKPQ
Regarding B1, the binding entry in test [2] is “binds”.
